The record followed here is patent US20090042213A1.

Amino acid sequences for entries named in this document (tags omitted). Residues count along the entry.
UniProt P02769, residues 25-607: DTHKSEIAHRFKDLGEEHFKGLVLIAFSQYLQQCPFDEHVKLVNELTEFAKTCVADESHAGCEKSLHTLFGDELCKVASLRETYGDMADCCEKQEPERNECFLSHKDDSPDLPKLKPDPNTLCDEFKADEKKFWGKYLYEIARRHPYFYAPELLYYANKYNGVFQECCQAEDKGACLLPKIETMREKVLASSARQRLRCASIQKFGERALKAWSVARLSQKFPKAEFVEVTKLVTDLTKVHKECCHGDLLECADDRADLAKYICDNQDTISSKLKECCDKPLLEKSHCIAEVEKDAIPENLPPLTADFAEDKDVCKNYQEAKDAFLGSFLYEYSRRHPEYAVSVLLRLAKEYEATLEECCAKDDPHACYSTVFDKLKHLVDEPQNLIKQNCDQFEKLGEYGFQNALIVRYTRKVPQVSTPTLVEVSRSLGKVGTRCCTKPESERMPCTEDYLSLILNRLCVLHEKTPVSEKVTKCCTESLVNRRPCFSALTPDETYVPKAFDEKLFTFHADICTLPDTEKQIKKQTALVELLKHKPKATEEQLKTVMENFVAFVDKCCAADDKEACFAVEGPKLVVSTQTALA

These are yes or no findings as the source states them, for the method shown. Some results given as binding are weak or reduced against the parent protein; the word gives no strength.

The target of the assay is bovine serum albumin (bovine) (UniProt P02769). As to the kind of experiment: observed during generation of the albumin-peptide conjugate used for affinity purification; method not described.

In the case of VIFDANAPVAVR [human thyroglobulin tryptic peptide … (SEQ ID NO:2)], the binding result is given as “binds”.
